PubChem BioAssay AID743121 | NCATS | 2013

- Screen: 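Genes whose silencing strengthens cell killing by camptothecin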 (primary screen)
- Cells: MDA-MB-231 cells, a human breast cancer line
- Reagent: single siRNA against human genes, 20 nM siRNA (0.8 pmol per well)
- Time to read-out: 120 h (drug added 48 h after transfection, read 72 h later)
- Conditions: camptothecin 20 nM (about EC30) for 72 h; vehicle 0.1% DMSO in parallel plates
- Detection: 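Cell viability by ATP luminescence (CellTiter-Glo) as % of non-targeting siRNA wells, and the log2 ratio of viability without drug over viability with camptothecin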
- Direction: log2 vehicle/camptothecin viability: higher = stronger sensitisation to camptothecin
- Call rule: 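Each gene scored by redundant siRNA activity (RSA) over its individual siRNA ratios; a gene is called active at p < 0.001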
Here is one part, drawn at random, of about 26,000 reagents. 167 of all reagents (0.63%) count as active. 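Calls are per gene from RSA p-values that are not deposited; an individual active-marked siRNA can sensitise only weakly.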 A number with no mark means an inactive call. Reagents against one gene are numbered here. Not all columns of the deposit are shown.

Silencing of GHR (growth hormone receptor) #1 gave: log2 vehicle/camptothecin viability 0.133. GHR (growth hormone receptor) #2 gave log2 vehicle/camptothecin viability 0.131. With knock-down of GHR (growth hormone receptor) #3 the results were log2 vehicle/camptothecin viability 0.00713. Depletion of GHR (growth hormone receptor) #4 resulted in: log2 vehicle/camptothecin viability -0.34. With knock-down of PTAR1 (protein prenyltransferase alpha subunit repeat containing 1) #1, the screen gave log2 vehicle/camptothecin viability 0.494 (active). Silencing of PTAR1 (protein prenyltransferase alpha subunit repeat containing 1) #2 resulted in: log2 vehicle/camptothecin viability -0.155 (active).

PTAR1 (protein prenyltransferase alpha subunit repeat containing 1) #3 scored log2 vehicle/camptothecin viability 0.528 (active). Silencing of PTAR1 (protein prenyltransferase alpha subunit repeat containing 1) #4 came out at: log2 vehicle/camptothecin viability 0.67 (active). TGFB2 (transforming growth factor beta 2) #1 scored log2 vehicle/camptothecin viability 0.249. With knock-down of TGFB2 (transforming growth factor beta 2) #2, the screen gave log2 vehicle/camptothecin viability 0.00603. TGFB2 (transforming growth factor beta 2) #3 scored log2 vehicle/camptothecin viability -0.707. Knock-down of NCR2 (natural cytotoxicity triggering receptor 2) #1 resulted in: log2 vehicle/camptothecin viability -0.15.

NCR2 (natural cytotoxicity triggering receptor 2) #2 showed log2 vehicle/camptothecin viability 0.0404. After knock-down of NCR2 (natural cytotoxicity triggering receptor 2) #3, the screen gave log2 vehicle/camptothecin viability -0.285.

Hits (from the list above):
PTAR1 (protein prenyltransferase alpha subunit repeat containing 1) #1: log2 vehicle/camptothecin viability = 0.494 (active)
PTAR1 (protein prenyltransferase alpha subunit repeat containing 1) #2: log2 vehicle/camptothecin viability = -0.155 (active)
PTAR1 (protein prenyltransferase alpha subunit repeat containing 1) #3: log2 vehicle/camptothecin viability = 0.528 (active)
PTAR1 (protein prenyltransferase alpha subunit repeat containing 1) #4: log2 vehicle/camptothecin viability = 0.67 (active)
